This note sets out measurements from patent US11541107B2, “Peptides and T cells for use in immunotherapeutic treatment of various cancers” (Immatics Biotechnologies GmbH, priority 2015, dated 2023).

For expression read-outs the peptide stands for its source gene, whose mRNA was measured; the gene is not named for every peptide.

The test system of this series is source genes of the peptides. Briefly: Target coverage of source genes based on TCGA Research Network expression data. On the set-up: species or system human. The settings on record: for Target coverage, over-expression category of source gene, SKCM (N = 473): Skin cutaneous melanoma; for Target coverage, over-expression category of source gene, SKCM (N = 473) / Target coverage, over-expression category of source gene, STAD (N = 415) / Target coverage, over-expression category of source gene, TGCT (N = 156) / Target coverage, over-expression category of source gene, THYM (N = 120) / Target coverage, over-expression category of source gene, UCS (N = 57) / Target coverage, over-expression category of source gene, THCA (N = 513) / Target coverage, over-expression category of source gene, UVM (N = 80) / Target coverage, over-expression category of source gene, UCEC (N = 546) / Target coverage, over-expression category of source gene, SARC (N = 263): cutoff more than 2-fold above highest 75% percentile of normal organs; for Target coverage, over-expression category of source gene, STAD (N = 415): Stomach adenocarcinoma; for Target coverage, over-expression category of source gene, TGCT (N = 156): Testicular germ cell tumors; for Target coverage, over-expression category of source gene, THYM (N = 120): Thymoma; for Target coverage, over-expression category of source gene, UCS (N = 57): Uterine carcinosarcoma; for Target coverage, over-expression category of source gene, THCA (N = 513): Thyroid carcinoma; for Target coverage, over-expression category of source gene, UVM (N = 80): Uveal melanoma; for Target coverage, over-expression category of source gene, STAD: Stomach adenocarcinoma (N = 415); for Target coverage, over-expression category of source gene, UCEC (N = 546): Uterine corpus endometrial carcinoma; for Target coverage, over-expression category of source gene, SARC (N = 263): Sarcoma.

“237: peptide found in KIF14 (gene looked up) (KYVGQLAVL; listed as Homo sapiens) [compound 237]”: the “Target coverage, over-expression category of source gene, SKCM (N = 473)” value is given as “A (>=50% of tumors above the cutoff)”; the “Target coverage, over-expression category of source gene, STAD (N = 415)” value is “A (>=50% of tumors above the cutoff)”; the “Target coverage, over-expression category of source gene, TGCT (N = 156)” value is on record as “A (>=50% of tumors above the cutoff)”; the “Target coverage, over-expression category of source gene, THYM (N = 120)” value is recorded as “A (>=50% of tumors above the cutoff)”. The “Target coverage, over-expression category of source gene, UCS (N = 57)” value was “A (>=50% of tumors above the cutoff)”.
For “244: peptide found in MMP13 (gene looked up) (VHFEDTGKTLLF; listed as Homo sapiens) [compound 244]”, the “Target coverage, over-expression category of source gene, STAD (N = 415)” value is recorded as “C (>=5% of tumors above the cutoff, but <20%)”; the “Target coverage, over-expression category of source gene, TGCT (N = 156)” value was “C (>=5% of tumors above the cutoff, but <20%)”; the “Target coverage, over-expression category of source gene, THYM (N = 120)” value was “C (>=5% of tumors above the cutoff, but <20%)”; the “Target coverage, over-expression category of source gene, THCA (N = 513)” value was “C (>=5% of tumors above the cutoff, but <20%)”. The “Target coverage, over-expression category of source gene, UCS (N = 57)” value was “C (>=5% of tumors above the cutoff, but <20%)”.
On to “144: peptide found in CCR4 (gene looked up) (VFASLPGFLF; listed as Homo sapiens) [compound 144]”, for which the “Target coverage, over-expression category of source gene, STAD (N = 415)” value is listed as “C (>=5% of tumors above the cutoff, but <20%)”.
For “345: peptide found in BUB1 (gene looked up) (EYNSDLHQFF; listed as Homo sapiens) [compound 345]”, the “Target coverage, over-expression category of source gene, STAD (N = 415)” value is on record as “A (>=50% of tumors above the cutoff)”; the “Target coverage, over-expression category of source gene, TGCT (N = 156)” value is “A (>=50% of tumors above the cutoff)”; the “Target coverage, over-expression category of source gene, UCS (N = 57)” value is listed as “A (>=50% of tumors above the cutoff)”.
Take “317: peptide found in SIAH1 (gene looked up) (VFDTSIAQLF; listed as Homo sapiens) [compound 317]”: the “Target coverage, over-expression category of source gene, UVM (N = 80)” value was “C (>=5% of tumors above the cutoff, but <20%)”.
With “403: peptide found in MMP12 (gene looked up) (TYKYVDINTF; listed as Homo sapiens) [compound 403]”, the “Target coverage, over-expression category of source gene, STAD” value was “B (>=20% of tumors above the cutoff, but <50%)”. In addition, where the note is “Testicular germ cell tumors (N = 156)”, the “Target coverage, over-expression category of source gene, TGCT” value is recorded as “B (>=20% of tumors above the cutoff, but <50%)”.
On to “220: peptide found in DCLRE1C (gene looked up) (SYSEIKDFL; listed as Homo sapiens) [compound 220]”, for which the “Target coverage, over-expression category of source gene, STAD (N = 415)” value is “C (>=5% of tumors above the cutoff, but <20%)”.
Turning to “54: peptide found in ITGA2 (gene looked up) (FINPKGNWLL; listed as Homo sapiens) [compound 54]”, the “Target coverage, over-expression category of source gene, STAD (N = 415)” value was “C (>=5% of tumors above the cutoff, but <20%)”; the “Target coverage, over-expression category of source gene, THYM (N = 120)” value is reported as “C (>=5% of tumors above the cutoff, but <20%)”; the “Target coverage, over-expression category of source gene, THCA (N = 513)” value was “C (>=5% of tumors above the cutoff, but <20%)”.
Take “105: peptide found in CENPE (gene looked up) (IYNETITDLL; listed as Homo sapiens) [compound 105]”: the “Target coverage, over-expression category of source gene, SKCM (N = 473)” value is “C (>=5% of tumors above the cutoff, but <20%)”; the “Target coverage, over-expression category of source gene, STAD (N = 415)” value is given as “A (>=50% of tumors above the cutoff)”; the “Target coverage, over-expression category of source gene, UCEC (N = 546)” value is reported as “C (>=5% of tumors above the cutoff, but <20%)”.
As to “350: peptide found in GTPBP10 (gene looked up) (KYGNFIDKL; listed as Homo sapiens) [compound 350]”, the “Target coverage, over-expression category of source gene, STAD (N = 415)” value is “C (>=5% of tumors above the cutoff, but <20%)” and the “Target coverage, over-expression category of source gene, TGCT (N = 156)” value is reported as “C (>=5% of tumors above the cutoff, but <20%)”.
For the substance “106: peptide found in KIFC1 (gene looked up) (IYNETVRDLL; listed as Homo sapiens) [compound 106]”, the “Target coverage, over-expression category of source gene, STAD (N = 415)” value is given as “C (>=5% of tumors above the cutoff, but <20%)”; the “Target coverage, over-expression category of source gene, TGCT (N = 156)” value was “A (>=50% of tumors above the cutoff)”; the “Target coverage, over-expression category of source gene, THYM (N = 120)” value is “A (>=50% of tumors above the cutoff)”; the “Target coverage, over-expression category of source gene, UCS (N = 57)” value is listed as “A (>=50% of tumors above the cutoff)”.
For “128: peptide found in PLA2G7 (gene looked up) (VYPFDWQYI; listed as Homo sapiens) [compound 128]”, the “Target coverage, over-expression category of source gene, TGCT (N = 156)” value is given as “C (>=5% of tumors above the cutoff, but <20%)”.
As for “285: peptide found in TRPC4 (gene looked up) (VYVGDALLHAI; listed as Homo sapiens) [compound 285]”, the “Target coverage, over-expression category of source gene, SARC (N = 263)” value is “C (>=5% of tumors above the cutoff, but <20%)”.
Consider “213: peptide found in SGK3 (gene looked up) (SYAPPSEDLFL; listed as Homo sapiens) [compound 213]”, for which the “Target coverage, over-expression category of source gene, SKCM (N = 473)” value is “C (>=5% of tumors above the cutoff, but <20%)” and the “Target coverage, over-expression category of source gene, THCA (N = 513)” value is “C (>=5% of tumors above the cutoff, but <20%)”.
Take “401: peptide found in MMP1 (gene looked up) (VFMKDGFFYF; listed as Homo sapiens) [compound 401]”: the “Target coverage, over-expression category of source gene, STAD” value was “A (>=50% of tumors above the cutoff)”. Moreover, the “Target coverage, over-expression category of source gene, SARC” value (Sarcoma (N = 263)) is recorded as “C (>=5% of tumors above the cutoff, but <20%)”. Moreover, the “Target coverage, over-expression category of source gene, SKCM” value (Skin cutaneous melanoma (N = 473)) is on record as “C (>=5% of tumors above the cutoff, but <20%)”. The “Target coverage, over-expression category of source gene, UCS” value (Uterine carcinosarcoma (N = 57)) is given as “C (>=5% of tumors above the cutoff, but <20%)”. Also, under “Uterine corpus endometrial carcinoma (N = 546)”, the “Target coverage, over-expression category of source gene, UCEC” value is reported as “C (>=5% of tumors above the cutoff, but <20%)”.
As for “123: peptide found in PRKDC (gene looked up) (VYTPVLEHL; listed as Homo sapiens) [compound 123]”, the “Target coverage, over-expression category of source gene, SARC (N = 263)” value is listed as “C (>=5% of tumors above the cutoff, but <20%)”; the “Target coverage, over-expression category of source gene, SKCM (N = 473)” value was “C (>=5% of tumors above the cutoff, but <20%)”; the “Target coverage, over-expression category of source gene, UVM (N = 80)” value is “C (>=5% of tumors above the cutoff, but <20%)”.
On to “92: peptide found in IGFBP3 (gene looked up) (LLRGPPVARA; listed as Homo sapiens) [compound 92]”, for which the “Target coverage, over-expression category of source gene, SARC (N = 263)” value was “C (>=5% of tumors above the cutoff, but <20%)”; the “Target coverage, over-expression category of source gene, SKCM (N = 473)” value is recorded as “C (>=5% of tumors above the cutoff, but <20%)”; the “Target coverage, over-expression category of source gene, UCEC (N = 546)” value is “C (>=5% of tumors above the cutoff, but <20%)”.
